No constants are given. Whether binding was seen depends on the method and setting. Binding seen in cells or lysates may run through a third protein. Here binding means that the protein was enriched with, or labelled near, the bait; the list need not be complete.

Chains of the proteins cited; added tags and fusions are not shown.
UniProt P51532: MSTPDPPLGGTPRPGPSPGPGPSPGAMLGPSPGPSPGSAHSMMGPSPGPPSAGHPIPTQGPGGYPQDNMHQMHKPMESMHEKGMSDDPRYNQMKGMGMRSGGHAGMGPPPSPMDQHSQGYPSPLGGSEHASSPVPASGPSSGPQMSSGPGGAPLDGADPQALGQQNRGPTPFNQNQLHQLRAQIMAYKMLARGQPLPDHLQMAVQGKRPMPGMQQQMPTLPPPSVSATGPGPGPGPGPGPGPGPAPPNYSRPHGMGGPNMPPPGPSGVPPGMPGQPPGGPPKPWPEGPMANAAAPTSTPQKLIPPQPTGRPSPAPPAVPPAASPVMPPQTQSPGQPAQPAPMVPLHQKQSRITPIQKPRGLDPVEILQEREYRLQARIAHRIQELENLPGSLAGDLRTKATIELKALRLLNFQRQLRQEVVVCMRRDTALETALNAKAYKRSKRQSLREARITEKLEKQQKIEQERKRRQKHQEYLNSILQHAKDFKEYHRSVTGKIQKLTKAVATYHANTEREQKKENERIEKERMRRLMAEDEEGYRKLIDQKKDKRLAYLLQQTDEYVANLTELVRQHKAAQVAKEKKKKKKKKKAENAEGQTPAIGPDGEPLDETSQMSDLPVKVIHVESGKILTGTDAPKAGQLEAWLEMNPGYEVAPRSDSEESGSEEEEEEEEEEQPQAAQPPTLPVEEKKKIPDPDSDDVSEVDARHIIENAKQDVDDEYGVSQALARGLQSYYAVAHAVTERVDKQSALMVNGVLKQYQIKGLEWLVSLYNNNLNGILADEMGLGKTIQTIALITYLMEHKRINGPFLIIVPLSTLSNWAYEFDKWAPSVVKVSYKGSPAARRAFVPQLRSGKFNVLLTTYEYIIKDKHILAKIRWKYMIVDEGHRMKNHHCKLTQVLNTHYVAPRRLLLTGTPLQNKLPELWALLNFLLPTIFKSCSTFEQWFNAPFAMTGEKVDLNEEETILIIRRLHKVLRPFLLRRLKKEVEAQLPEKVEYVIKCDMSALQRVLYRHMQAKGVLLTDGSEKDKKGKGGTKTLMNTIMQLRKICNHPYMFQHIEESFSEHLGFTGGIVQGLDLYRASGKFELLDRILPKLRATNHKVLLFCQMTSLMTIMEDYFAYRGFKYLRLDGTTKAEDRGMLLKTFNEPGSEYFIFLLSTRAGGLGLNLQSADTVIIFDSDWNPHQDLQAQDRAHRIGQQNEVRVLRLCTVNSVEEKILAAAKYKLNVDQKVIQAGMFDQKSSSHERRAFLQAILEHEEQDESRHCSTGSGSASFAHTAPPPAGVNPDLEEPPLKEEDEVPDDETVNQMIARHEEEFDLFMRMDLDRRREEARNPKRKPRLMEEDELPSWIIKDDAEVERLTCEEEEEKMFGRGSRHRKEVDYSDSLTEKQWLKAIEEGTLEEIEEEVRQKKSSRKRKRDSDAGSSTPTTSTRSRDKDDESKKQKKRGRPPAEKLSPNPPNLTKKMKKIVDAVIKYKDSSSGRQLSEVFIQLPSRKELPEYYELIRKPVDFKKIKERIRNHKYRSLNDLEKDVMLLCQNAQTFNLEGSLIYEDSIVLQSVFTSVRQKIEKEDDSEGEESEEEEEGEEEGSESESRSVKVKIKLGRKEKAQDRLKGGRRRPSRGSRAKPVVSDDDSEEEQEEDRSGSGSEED

First the molecules themselves.
B1: JUND (protein, UniProt P17535 1-347)
chain: METPFYGDEALSGLGGGASGSGGSFASPGRLFPGAPPTAAAGSMMKKDALTLSLSEQVAAALKPAAAPPPTPLRADGAPSAAPPDGLLASPDLGLLKLASPELERLIIQSNGLVTTTPTSSQFLYPKVAASEEQEFAEGFVKALEDLHKQNQLGAGAAAAAAAAAAGGPSGTATGSAPPGELAPAAAAPEAPVYANLSSYAGGAGGAGGAATVAFAAEPVPFPPPPPPGALGPPRLAALKDEPQTVPDVPSFGESPPLSPIDMDTQERIKAERKRLRNRIAASKCRKRKLERISRLEEKVKTLKSQNTELASTASLLREQVAQLKQKVLSHVNSGCQLLPQHQVPAY
B2: RB1 (protein, UniProt P06400 1-928)
chain: MPPKTPRKTAATAAAAAAEPPAPPPPPPPEEDPEQDSGPEDLPLVRLEFEETEEPDFTALCQKLKIPDHVRERAWLTWEKVSSVDGVLGGYIQKKKELWGICIFIAAVDLDEMSFTFTELQKNIEISVHKFFNLLKEIDTSTKVDNAMSRLLKKYDVLFALFSKLERTCELIYLTQPSSSISTEINSALVLKVSWITFLLAKGEVLQMEDDLVISFQLMLCVLDYFIKLSPPMLLKEPYKTAVIPINGSPRTPRRGQNRSARIAKQLENDTRIIEVLCKEHECNIDEVKNVYFKNFIPFMNSLGLVTSNGLPEVENLSKRYEEIYLKNKDLDARLFLDHDKTLQTDSIDSFETQRTPRKSNLDEEVNVIPPHTPVRTVMNTIQQLMMILNSASDQPSENLISYFNNCTVNPKESILKRVKDIGYIFKEKFAKAVGQGCVEIGSQRYKLGVRLYYRVMESMLKSEEERLSIQNFSKLLNDNIFHMSLLACALEVVMATYSRSTSQNLDSGTDLSFPWILNVLNLKAFDFYKVIESFIKAEGNLTREMIKHLERCEHRIMESLAWLSDSPLFDLIKQSKDREGPTDHLESACPLNLPLQNNHTAADMYLSPVRSPKKKGSTTRVNSTANAETQATSAFQTQKPLKSTSLSLFYKKVYRLAYLRLNTLCERLLSEHPELEHIIWTLFQHTLQNEYELMRDRHLDQIMMCSMYGICKVKNIDLKFKIIVTAYKDLPHAVQETFKRVLIKEEEYDSIIVFYNSVFMQRLKTNILQYASTRPPTLSPIPHIPRSPYKFPSSPLRIPGGNIYISPLKSPYKISEGLPTPTKMTPRSRILVSIGESFGTSEKFQKINQMVCNSDRVLKRSAEGSNPPKPLKKLRFDIEGSDEADGSKHLPGESKFQQKLAEMTSTRTRMQKQKMNDSMDTSNKEEK
B3: JUNB (protein, UniProt P17275 1-347)
chain: MCTKMEQPFYHDDSYTATGYGRAPGGLSLHDYKLLKPSLAVNLADPYRSLKAPGARGPGPEGGGGGSYFSGQGSDTGASLKLASSELERLIVPNSNGVITTTPTPPGQYFYPRGGGSGGGAGGAGGGVTEEQEGFADGFVKALDDLHKMNHVTPPNVSLGATGGPPAGPGGVYAGPEPPPVYTNLSSYSPASASSGGAGAAVGTGSSYPTTTISYLPHAPPFAGGHPAQLGLGRGASTFKEEPQTVPEARSRDATPPVSPINMEDQERIKVERKRLRNRLAATKCRKRKLERIARLEDKVKTLKAENAGLSSTAGLLREQVAQLKQKVMTHVSNGCQLLLGVKGHAF
B4: ZNF512 (protein, UniProt Q96ME7 1-567)
chain: MSSRLGAVPATSGPTTFKQQRSTRIVGAKNSRTQCSIKDNSFQYTIPHDDSLSGSSSASSCEPVSDFPASFRKSTYWMKMRRIKPAATSHVEGSGGVSAKGKRKPRQEEDEDYREFPQKKHKLYGRKQRPKTQPNPKSQARRIRKEPPVYAAGSLEEQWYLEIVDKGSVSCPTCQAVGRKTIEGLKKHMENCKQEMFTCHHCGKQLRSLAGMKYHVMANHNSLPILKAGDEIDEPSERERLRTVLKRLGKLRCMRESCSSSFTSIMGYLYHVRKCGKGAAELEKMTLKCHHCGKPYRSKAGLAYHLRSEHGPISFFPESGQPECLKEMNLESKSGGRVQRRSAKIAVYHLQELASAELAKEWPKRKVLQDLVPDDRKLKYTRPGLPTFSQEVLHKWKTDIKKYHRIQCPNQGCEAVYSSVSGLKAHLGSCTLGNFVAGKYKCLLCQKEFVSESGVKYHINSVHAEDWFVVNPTTTKSFEKLMKIKQRQQEEEKRRQQHRSRRSLRRRQQPGIELPETELSLRVGKDQRRNNEELVVSASCKEPEQEPVPAQFQKVKPPKTNHKRGRK
B5: ZNF598 (protein, UniProt Q86UK7 1-904)
chain: MAAAGGAEGRRAALEAAAAAAPERGGGSCVLCCGDLEATALGRCDHPVCYRCSTKMRVLCEQRYCAVCREELRQVVFGKKLPAFATIPIHQLQHEKKYDIYFADGKVYALYRQLLQHECPRCPELPPFSLFGDLEQHMRRQHELFCCRLCLQHLQIFTYERKWYSRKDLARHRMQGDPDDTSHRGHPLCKFCDERYLDNDELLKHLRRDHYFCHFCDSDGAQDYYSDYAYLREHFREKHFLCEEGRCSTEQFTHAFRTEIDLKAHRTACHSRSRAEARQNRHIDLQFSYAPRHSRRNEGVVGGEDYEEVDRYSRQGRVARAGTRGAQQSRRGSWRYKREEEDREVAAAVRASVAAQQQEEARRSEDQEEGGRPKKEEAAARGPEDPRGPRRSPRTQGEGPGPKETSTNGPVSQEAFSVTGPAAPGCVGVPGALPPPSPKLKDEDFPSLSASTSSSCSTAATPGPVGLALPYAIPARGRSAFQEEDFPALVSSVPKPGTAPTSLVSAWNSSSSSKKVAQPPLSAQATGSGQPTRKAGKGSRGGRKGGPPFTQEEEEDGGPALQELLSTRPTGSVSSTLGLASIQPSKVGKKKKVGSEKPGTTLPQPPPATCPPGALQAPEAPASRAEGPVAVVVNGHTEGPAPARSAPKEPPGLPRPLGSFPCPTPQEDFPALGGPCPPRMPPPPGFSAVVLLKGTPPPPPPGLVPPISKPPPGFSGLLPSPHPACVPSPATTTTTKAPRLLPAPRAYLVPENFRERNLQLIQSIRDFLQSDEARFSEFKSHSGEFRQGLISAAQYYKSCRDLLGENFQKVFNELLVLLPDTAKQQELLSAHTDFCNREKPLSTKSKKNKKSAWQATTQQAGLDCRVCPTCQQVLAHGDASSHQALHAARDDDFPSLQAIARIIT
B6: POU3F1 (protein, UniProt Q03052 1-451)
chain: MATTAQYLPRGPGGGAGGTGPLMHPDAAAAAAAAAAAERLHAGAAYREVQKLMHHEWLGAGAGHPVGLAHPQWLPTGGGGGGDWAGGPHLEHGKAGGGGTGRADDGGGGGGFHARLVHQGAAHAGAAWAQGSTAHHLGPAMSPSPGASGGHQPQPLGLYAQAAYPGGGGGGLAGMLAAGGGGAGPGLHHALHEDGHEAQLEPSPPPHLGAHGHAHGHAHAGGLHAAAAHLHPGAGGGGSSVGEHSDEDAPSSDDLEQFAKQFKQRRIKLGFTQADVGLALGTLYGNVFSQTTICRFEALQLSFKNMCKLKPLLNKWLEETDSSSGSPTNLDKIAAQGRKRKKRTSIEVGVKGALESHFLKCPKPSAHEITGLADSLQLEKEVVRVWFCNRRQKEKRMTPAAGAGHPPMDDVYAPGELGPGGGGASPPSAPPPPPPAALHHHHHHTLPGSVQ

The target in this assay is BRG1 (human (endogenous in MLS 402-91 and EWS TC-71)) (UniProt P51532). In words: affinity purification with mass spectrometry; BRG1 IP: biotinylated BRG1 antibody on streptavidin magnetic beads, 50 µg nuclear extract of MLS 402-91 or of EWS TC-71 cells, 150 mM KCl, 10 mM Tris pH 7.5, overnight at 4 °C; TMT quantitative mass spectrometry; hits > 1.5-fold over the IgG control.
With B1, the binding result was “binds”.
The result for B2 reads “binds”; that for B3, “binds”.
Regarding B4, the binding entry is “binds”.
As to B5, the binding result is given as “binds”.
The result for B6 reads “binds”.

The values above are taken from publication PMC12455829.
